This continues a long series; more values of the same kind are listed elsewhere.
Tested on: human colon carcinoma cell strain WiDr
Assay: Microarray analysis (2), reviewed conditions, intron expression, Table 3
Format: cell-based
Procedure: WiDr cells were first suspended in RPMI1640 medium (containing 10% FBS, penicillin, and streptomycin) and seeded in a 10 cm dish (2×10^6 cells/dish). After an overnight culture in an incubator with 5% carbon dioxide gas at 37° C., the medium was changed with medium containing 14 nM of (8E,12E,14E)-7-((4-cycloheptylpiperazin-1-yl)carbonyl)oxy-3,6,16,21-tetrahydroxy-6,10,12,16,20-pentamethyl-18,19-epoxytricosa-8,12,14-trien-11-olide or containing vehicle alone. After cultured for additional six hours, TRI reagent (SIGMA) were added to the cells and the cells were harvested. RNA was purified in accordance with the protocol of TRI reagent, followed by further purification with RNeasy (QIAGEN). Absorbance at 260 nm was measured to quantify an amount of RNA. This experiment was repeated three times and RNA samples (n=3) were prepared.
Ribosomal RNA was removed from 1 μg of each total RNA of control cells (n=3) and cells with the treatment (n=3) by using RiboMinus Human/Mouse Transcriptome Isolation Kit (Invitrogen). Single stranded cDNA synthesis, double stranded cDNA synthesis, cRNA synthesis, second single stranded cDNA synthesis, cDNA fragmentation, and cDNA labeling in order were carried out for the total RNA from which ribosomal RNA was removed, by using GeneChip Whole Transcript Sense Target Labeling and Control Reagents (Affymetrix) to make a cDNA probe. The cDNA probe was used for hybridization with Human Exon 1.0 ST Array (Affymetrix). The array was washed and stained, and luminescence intensity was measured by a scanner.
Analysis conditions were reviewed in the data used in Example 3. Genes containing increased introns upon treatment with (8E,12E,14E)-7-((4-cycloheptylpiperazin-1-yl)carbonyl)oxy-3,6,16,21-tetrahydroxy-6,10,12,16,20-pentamethyl-18,19-epoxytricosa-8,12,14-trien-11-olide were identified.
In order to consider the analysis conditions, variations in the data from the samples with identical conditions were studied. […] It turned out that, by analyzing under conditions where the expression level was more than 100 and change in the expression level was more than five times, a probe set with increased expression can be extracted.
Probe sets showing that the normalized change in the level expression of the probe set in the group with the treatment was more than 5 times; the expression level of the probe set and the gene in the group with the treatment were more than 100; and probe set annotation was “extended, full, free”, were picked out. Welch's t-test was conducted with the probe sets extracted for the treated group and the control group to determine a p and q value. A gene containing the probe sets with the q value of less than 5% was determined as a candidate gene with increased expression level of the intron regions (Table 3).
In Table 3, for each gene evaluated, gene name (Gene Name), abbreviated name (Gene Symbol), accession number (Accession), alias name (Synonym), transcription cluster number in Human Exon 1.0 ST Array (Human Exon 1.0 ST Array Transcript Cluster ID), chromosome number (Chromosome), type of strand (Strand), start region (Start), stop region (Stop), and change in expression level (Fold Change) were respectively shown.

CCC(O)C(C)C1OC1CC(C)(O)/C=C/C=C(\C)C1OC(=O)CC(O)CCC(C)(O)C(OC(=O)N2CCN(C3CCCCCC3)CC2)/C=C/C1C (centres unmarked) [E7107, (8E,12E,14E)-7-((4-cycloheptylpiperazin-1-yl)carbonyl)oxy-3,6,16,21-tetrahydroxy-6,10,12,16,20-pentamethyl-18,19-epoxytricosa-8,12,14-trien-11-olide]
Fold Change (gene TFG, Transcript Cluster ID 2633773, intron expression, treated vs control): 9.22
Fold Change (gene TGFBR2, change in expression level, treated vs control): 6.21
Fold Change (gene THOC1, change in expression level, treated vs control): 6.36
Fold Change (gene THOC5, change in expression level, treated vs control): 14.15
Fold Change (gene THRAP2, change in expression level, treated vs control): 5.96
Fold Change (gene TIMM23, change in expression level, treated vs control): 28.32
Fold Change (gene TIMP1, change in expression level, treated vs control): 11.27
Fold Change (gene TINF2, change in expression level, treated vs control): 11.82
Fold Change (gene TJP1, intron expression, treated vs control): 7.30
Fold Change (gene TJP2, Transcript Cluster ID 3173880): 5.27
Fold Change (gene TLOC1, change in expression level, treated vs control): 6.09
Fold Change (gene TM2D2, change in expression level, treated vs control): 6.38
Fold Change (gene TM4SF1, Transcript Cluster ID 2700365): 5.34
Fold Change (gene TMEM5, Transcript Cluster ID 3419585): 5.20
Fold Change (gene TMEM87A, change in expression level, treated vs control): 6.46
Fold Change (gene TMEM123, change in expression level, treated vs control): 6.18
Fold Change (gene TMEM138, change in expression level, treated vs control): 6.02
Fold Change (gene TMEM170, Transcript Cluster ID 3699581): 5.15
Fold Change (gene TMEPAI, intron expression, treated vs control): 6.87
Fold Change (gene TMSB10, Transcript Cluster ID 2491271, intron expression, treated vs control): 9.85
Fold Change (gene TNFRSF1A, Transcript Cluster ID 3441849, intron expression, treated vs control): 9.60
Fold Change (gene TNKS1BP1, change in expression level, treated vs control): 5.98
Fold Change (gene TNS4, Transcript Cluster ID 3756262, intron expression, treated vs control): 9.51
Fold Change (gene TOMM70A, intron expression, treated vs control): 6.76
Fold Change (gene TOP2A, intron expression, treated vs control): 7.15
Fold Change (gene TOPBP1, Transcript Cluster ID 2695941): 5.07
Fold Change (gene TPM1, change in expression level, treated vs control): 6.21
Fold Change (gene TPX2, intron expression, treated vs control): 7.37
Fold Change (gene TRAF6, change in expression level, treated vs control): 6.29
Fold Change (gene TRIM26, Transcript Cluster ID 2948259): 5.13
Fold Change (gene TRIM44, Transcript Cluster ID 3326842, intron expression, treated vs control): 9.03
Fold Change (gene TRIO, intron expression, treated vs control): 7.00
Fold Change (gene TRMU, intron expression, treated vs control): 7.29
Fold Change (gene TROVE2, intron expression, treated vs control): 6.62
Fold Change (gene TSC1, change in expression level, treated vs control): 6.27
Fold Change (gene TSC22D2, intron expression, treated vs control): 6.91
Fold Change (gene TSPAN5, Transcript Cluster ID 2778856, intron expression, treated vs control): 9.53
Fold Change (gene TSPAN14, Transcript Cluster ID 3254521): 5.30
Fold Change (gene TSR1, change in expression level, treated vs control): 44.77
Fold Change (gene TTC17, change in expression level, treated vs control): 6.13
Fold Change (gene TUBB, Transcript Cluster ID 2901913): 5.08
Fold Change (gene TXNIP, intron expression, treated vs control): 6.72
Fold Change (gene TXNL1, Transcript Cluster ID 3809324): 5.37
Fold Change (gene TXNRD1, intron expression, treated vs control): 7.39
Fold Change (gene UBB // C17orf45, change in expression level, treated vs control): 6.08
Fold Change (gene UBC, intron expression, treated vs control): 6.61
Fold Change (gene UBE2C // PAK3, Transcript Cluster ID 3887049): 5.22
Fold Change (gene UBE2M // UBE2MP1, intron expression, treated vs control): 6.54
Fold Change (gene UBE3A, change in expression level, treated vs control): 19.35
Fold Change (gene UBL3, Transcript Cluster ID 3507798): 5.42
Fold Change (gene UBQLN1 // DIDO1, Transcript Cluster ID 3212143): 5.44
Fold Change (gene UCHL3, Transcript Cluster ID 3494102): 5.08
Fold Change (gene UPF1, Transcript Cluster ID 3825383): 5.34
Fold Change (gene USF1 // ARHGAP30, intron expression, treated vs control): 7.17
Fold Change (gene USP7, change in expression level, treated vs control): 6.30
Fold Change (gene USP10, intron expression, treated vs control): 7.27
Fold Change (gene USP15, change in expression level, treated vs control): 6.41
Fold Change (gene USP38, change in expression level, treated vs control): 13.94
Fold Change (gene USP47, change in expression level, treated vs control): 12.32
Fold Change (gene USP53, intron expression, treated vs control): 7.35
Fold Change (gene USPL1, Transcript Cluster ID 3484005): 5.20
Fold Change (gene UTP6, Transcript Cluster ID 3752437, intron expression, treated vs control): 10.30
Fold Change (gene UTP15, intron expression, treated vs control): 6.57
Fold Change (gene VAMP3, intron expression, treated vs control): 7.35
Fold Change (gene VDAC2, intron expression, treated vs control): 7.41
Fold Change (gene VEZF1, change in expression level, treated vs control): 6.34
Fold Change (gene VIL2, change in expression level, treated vs control): 12.62
Fold Change (gene WASF2, intron expression, treated vs control): 6.81
Fold Change (gene WDR36, Transcript Cluster ID 2823820, intron expression, treated vs control): 9.03
Fold Change (gene WDR46, intron expression, treated vs control): 7.16
Fold Change (gene WDR73, change in expression level, treated vs control): 20.03
Fold Change (gene WDR74, Transcript Cluster ID 3376235, intron expression, treated vs control): 10.13
Fold Change (gene WEE1, change in expression level, treated vs control): 12.54
Fold Change (gene WHSC1, Transcript Cluster ID 2715076): 5.23
Fold Change (gene WNK1, intron expression, treated vs control): 6.98
Fold Change (gene WNT11, intron expression, treated vs control): 6.53
Fold Change (gene WTAP // ACAT2, Transcript Cluster ID 2934089): 5.04
Fold Change (gene XBP1, change in expression level, treated vs control): 6.25
Fold Change (gene XPO4, Transcript Cluster ID 3504434): 5.43
Fold Change (gene XPO6, Transcript Cluster ID 3686339): 5.34
Fold Change (gene YAP1, change in expression level, treated vs control): 11.01
Fold Change (gene YES1, Transcript Cluster ID 3795942, intron expression, treated vs control): 9.48
Fold Change (gene YTHDF2, Transcript Cluster ID 2327630): 5.15
Fold Change (gene YTHDF3, intron expression, treated vs control): 6.55
Fold Change (gene YWHAB, change in expression level, treated vs control): 13.72
Fold Change (gene ZBTB7A, Transcript Cluster ID 3846594): 5.24
Fold Change (gene ZBTB11, intron expression, treated vs control): 7.02
Fold Change (gene ZDHHC5, Transcript Cluster ID 3331433): 5.14
Fold Change (gene ZFP91 // CNTF, Transcript Cluster ID 3331730, intron expression, treated vs control): 9.54
Fold Change (gene ZNF146 // ZNF268, Transcript Cluster ID 3831260): 5.40
Fold Change (gene ZNF192, change in expression level, treated vs control): 6.23
Fold Change (gene ZNF227 // ZNF155, Transcript Cluster ID 3835544): 5.21
Fold Change (gene ZNF289, intron expression, treated vs control): 6.84
Fold Change (gene ZNF313, change in expression level, treated vs control): 6.39
Fold Change (gene ZNF317 // ZNF658, change in expression level, treated vs control): 19.64
Fold Change (gene ZNF330, intron expression, treated vs control): 6.87
Fold Change (gene ZNF410, Transcript Cluster ID 3543884, intron expression, treated vs control): 10.23
Fold Change (gene ZNF512, Transcript Cluster ID 2474651): 5.40
Fold Change (gene ZNF592, change in expression level, treated vs control): 6.44
Fold Change (gene ZNF707, Transcript Cluster ID 3119765): 5.39
Fold Change (gene ZNF787, Transcript Cluster ID 3871730): 5.18
Fold Change (gene ZNFX1 // GSDML, Transcript Cluster ID 3908831): 5.44
Fold Change (gene ZRANB2, change in expression level, treated vs control): 6.03
Fold Change (gene bA16L21.2.1 // GNG10, Transcript Cluster ID 3184940, intron expression, treated vs control): 10.05

Reference: US20100021918A1, “METHOD FOR ASSAYING ACTION OF ANTITUMOR AGENT USING SPLICING DEFECTS AS INDEX” (Eisai R&D Management Co., Ltd., priority 2007, published 2010)
